Measured values taken from publication PMC9036127.
These are yes or no findings as the source states them, for the method shown.

Sequences of proteins named here, by UniProt entry; tags and fusion partners are left off. A change or cut given only in a name is not applied to a line headed by its entry.
UniProt P40692: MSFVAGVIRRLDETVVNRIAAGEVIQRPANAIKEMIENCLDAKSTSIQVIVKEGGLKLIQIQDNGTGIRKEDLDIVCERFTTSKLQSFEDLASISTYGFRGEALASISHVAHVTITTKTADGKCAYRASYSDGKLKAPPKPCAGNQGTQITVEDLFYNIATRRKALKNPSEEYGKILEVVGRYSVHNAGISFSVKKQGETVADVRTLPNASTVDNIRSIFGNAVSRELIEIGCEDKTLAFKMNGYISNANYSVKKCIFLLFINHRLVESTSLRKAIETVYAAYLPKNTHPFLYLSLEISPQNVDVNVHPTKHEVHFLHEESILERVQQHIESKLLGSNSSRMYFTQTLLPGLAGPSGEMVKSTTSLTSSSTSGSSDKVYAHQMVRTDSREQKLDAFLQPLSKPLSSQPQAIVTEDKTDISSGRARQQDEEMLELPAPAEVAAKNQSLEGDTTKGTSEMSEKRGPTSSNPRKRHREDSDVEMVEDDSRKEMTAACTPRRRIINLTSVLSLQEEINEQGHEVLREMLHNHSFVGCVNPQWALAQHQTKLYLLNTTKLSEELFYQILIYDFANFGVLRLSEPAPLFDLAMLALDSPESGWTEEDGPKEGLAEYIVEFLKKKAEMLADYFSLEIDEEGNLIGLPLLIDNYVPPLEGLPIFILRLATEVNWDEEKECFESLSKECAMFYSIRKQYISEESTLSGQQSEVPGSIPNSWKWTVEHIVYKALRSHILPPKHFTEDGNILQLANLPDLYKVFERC
UniProt P54278: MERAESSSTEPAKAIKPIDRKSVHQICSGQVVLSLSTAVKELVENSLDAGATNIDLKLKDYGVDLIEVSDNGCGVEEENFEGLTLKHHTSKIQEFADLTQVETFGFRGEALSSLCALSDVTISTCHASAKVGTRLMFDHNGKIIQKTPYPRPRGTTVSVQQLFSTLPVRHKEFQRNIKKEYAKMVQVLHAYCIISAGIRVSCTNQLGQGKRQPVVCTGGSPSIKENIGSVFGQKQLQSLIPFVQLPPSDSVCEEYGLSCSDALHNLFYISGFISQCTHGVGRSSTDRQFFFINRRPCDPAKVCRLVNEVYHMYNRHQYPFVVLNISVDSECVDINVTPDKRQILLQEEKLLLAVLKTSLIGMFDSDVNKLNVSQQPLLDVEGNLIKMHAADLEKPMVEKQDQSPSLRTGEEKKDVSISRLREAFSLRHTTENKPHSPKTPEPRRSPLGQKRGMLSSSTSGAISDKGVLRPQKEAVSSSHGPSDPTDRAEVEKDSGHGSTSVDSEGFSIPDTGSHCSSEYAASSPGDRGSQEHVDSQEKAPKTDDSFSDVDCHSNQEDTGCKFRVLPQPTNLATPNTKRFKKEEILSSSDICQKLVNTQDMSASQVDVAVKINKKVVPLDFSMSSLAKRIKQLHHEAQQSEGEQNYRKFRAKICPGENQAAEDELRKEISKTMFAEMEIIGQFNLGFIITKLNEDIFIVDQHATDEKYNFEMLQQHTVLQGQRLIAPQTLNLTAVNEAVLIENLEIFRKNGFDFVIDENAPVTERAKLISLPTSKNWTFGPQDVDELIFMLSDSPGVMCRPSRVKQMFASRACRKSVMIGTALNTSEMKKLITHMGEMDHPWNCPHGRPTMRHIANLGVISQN

Target: Human MutLα (MLH1-PMS2 heterodimer) (human) (UniProt P40692+P54278)
Experiment: co-IP; purified proteins; MutSα- or MutLα-containing agarose beads (antibodies against MSH2 or MLH1), DNA2 in solution; for MutSα 30-μl mixtures with MutSα (3.4 pmol) and DNA2 (3.4 pmol); eluted fractions analyzed by immunoblotting; both purified

binding: no binding
B1: Human DNA2 nuclease/helicase (enzyme, UniProt P51530 1-1060)
chain: MEQLNELELLMEKSFWEEAELPAELFQKKVVASFPRTVLSTGMDNRYLVLAVNTVQNKEGNCEKRLVITASQSLENKELCILRNDWCSVPVEPGDIIHLEGDCTSDTWIIDKDFGYLILYPDMLISGTSIASSIRCMRRAVLSETFRSSDPATRQMLIGTVLHEVFQKAINNSFAPEKLQELAFQTIQEIRHLKEMYRLNLSQDEIKQEVEDYLPSFCKWAGDFMHKNTSTDFPQMQLSLPSDNSKDNSTCNIEVVKPMDIEESIWSPRFGLKGKIDVTVGVKIHRGYKTKYKIMPLELKTGKESNSIEHRSQVVLYTLLSQERRADPEAGLLLYLKTGQMYPVPANHLDKRELLKLRNQMAFSLFHRISKSATRQKTQLASLPQIIEEEKTCKYCSQIGNCALYSRAVEQQMDCSSVPIVMLPKIEEETQHLKQTHLEYFSLWCLMLTLESQSKDNKKNHQNIWLMPASEMEKSGSCIGNLIRMEHVKIVCDGQYLHNFQCKHGAIPVTNLMAGDRVIVSGEERSLFALSRGYVKEINMTTVTCLLDRNLSVLPESTLFRLDQEEKNCDIDTPLGNLSKLMENTFVSKKLRDLIIDFREPQFISYLSSVLPHDAKDTVACILKGLNKPQRQAMKKVLLSKDYTLIVGMPGTGKTTTICTLVRILYACGFSVLLTSYTHSAVDNILLKLAKFKIGFLRLGQIQKVHPAIQQFTEQEICRSKSIKSLALLEELYNSQLIVATTCMGINHPIFSRKIFDFCIVDEASQISQPICLGPLFFSRRFVLVGDHQQLPPLVLNREARALGMSESLFKRLEQNKSAVVQLTVQYRMNSKIMSLSNKLTYEGKLECGSDKVANAVINLRHFKDVKLELEFYADYSDNPWLMGVFEPNNPVCFLNTDKVPAPEQVEKGGVSNVTEAKLIVFLTSIFVKAGCSPSDIGIIAPYRQQLKIINDLLARSIGMVEVNTVDKYQGRDKSIVLVSFVRSNKDGTVGELLKDWRRLNVAITRAKHKLILLGCVPSLNCYPPLEKLLNHLNSEKLIIDLPSREHESLCHILGDFQRE
